# From the supplement of paper PMC3334620
# Whole data set: some 33,000 sequences, median “E-score (-0.5 to 0.5)” near -0.016, cut for the highest 2% near 0.3. The list shows a part of the results.
# Biological target: T1, Yer184c (UniProt P39961)
# T1 sequence: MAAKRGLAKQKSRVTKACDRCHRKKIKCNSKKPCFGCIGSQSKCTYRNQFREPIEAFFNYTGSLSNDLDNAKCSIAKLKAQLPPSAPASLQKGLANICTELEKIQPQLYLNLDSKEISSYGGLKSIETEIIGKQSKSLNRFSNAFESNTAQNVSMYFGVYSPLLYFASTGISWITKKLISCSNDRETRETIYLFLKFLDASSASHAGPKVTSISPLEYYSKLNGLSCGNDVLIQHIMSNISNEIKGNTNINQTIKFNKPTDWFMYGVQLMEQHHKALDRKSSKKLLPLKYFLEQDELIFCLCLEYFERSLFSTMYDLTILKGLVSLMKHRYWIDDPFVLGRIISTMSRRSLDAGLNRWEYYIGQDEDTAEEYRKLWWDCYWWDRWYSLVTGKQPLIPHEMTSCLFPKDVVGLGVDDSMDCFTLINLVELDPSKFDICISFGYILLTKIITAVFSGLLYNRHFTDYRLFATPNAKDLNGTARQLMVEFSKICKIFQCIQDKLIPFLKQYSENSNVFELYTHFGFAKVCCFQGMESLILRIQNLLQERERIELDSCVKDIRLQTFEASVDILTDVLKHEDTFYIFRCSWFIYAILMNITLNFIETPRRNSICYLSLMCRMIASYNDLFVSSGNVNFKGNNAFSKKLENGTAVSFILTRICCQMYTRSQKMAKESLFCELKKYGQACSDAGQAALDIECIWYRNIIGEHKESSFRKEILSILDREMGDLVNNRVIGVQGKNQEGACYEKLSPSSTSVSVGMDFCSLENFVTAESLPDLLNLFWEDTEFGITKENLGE
# Assay: PBM E-score (8-mer binding enrichment) (E-score (-0.5 to 0.5)); higher = stronger / more preferred TF binding
# Conditions: protein concentration: 100 nM; construct: GST-full length
# Description: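 Universal 'all 10-mer' protein binding microarrays (Agilent AMADID 015681) probed with GST-tagged S. cerevisiae TFs (full-length or DBD) made by in vitro transcription/translation (PURExpress), about 100-200 nM. Bound TF was detected with fluorescent anti-GST. Each ungapped 8-mer (which stands for itself and its reverse complement) is scored by the PBM enrichment score (E-score), a modified Wilcoxon-Mann-Whitney statistic from -0.5 to +0.5, computed with the Universal PBM Analysis Suite. Scale: above 0.35 generally sequence-specific binding.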
row,Sequence,PBM E-score
1,CAGCGTCA,-0.113
2,CCAGGTCA,-0.214
3,AGGCTTAA,-0.0796
4,AAATGAAA,0.287
5,CGTCGGAA,0.24
6,CGACTCGA,0.0386
7,ATCTCCGC,0.14
8,GGTATGTA,-0.219
9,CAAGAACA,0.0117
10,CCACTTGC,-0.194
11,ACCCATCT,-0.081
12,CGCAAAGC,0.16
13,ACGAGGGA,-0.141
14,CTCCGAAA,0.266
15,GAGATGGA,0.0577
16,GATTAGGA,0.099
17,CTCAGGAA,-0.169
18,AGTTTAAG,0.0408
19,CTGAGACA,-0.0588
20,TTAAGCAA,0.0761
21,ATCCAGTG,0.0535
22,CCGCGTTA,0.0753
23,GCGCTCGA,-0.183
24,TAATTCTA,0.159
25,CTCCTGGA,-0.336

row,Sequence,PBM E-score
1,GCCGGACA,0.36
2,ACGTCGGG,-0.113
3,GACTGTGA,-0.0703
4,AGCCCATA,-0.198
5,CTAGATGC,-0.0167
6,AGGATTCC,-0.169
7,AGCTCTTA,-0.037
8,GGCCGCCA,-0.159
9,CCATCTCC,0.141
10,AGGAACCT,0.0988
11,ATGTTATA,0.112
12,ACTCGCTC,-0.0141
13,ATAGGCAA,-0.214
14,GAATTACA,0.191
15,GCGGGAAA,0.223
16,ATGTCGGA,0.202
17,GGCTGAAA,0.133
18,CTCTCGCC,-0.18
19,AGATCGAA,0.196
20,CGTGACCC,-0.02
21,AGTGGCCG,0.0237
22,CCCATCGC,-0.244
23,GTTTCTTA,0.00026
24,AAAAGGTT,-0.0664
25,ATTCATCC,0.00529

# In another format: results already given.
row	Sequence	PBM E-score
11	ACCCATCT	-0.081
12	CGCAAAGC	0.16
13	ACGAGGGA	-0.141

# Following part:

row,Sequence,PBM E-score
1,AGATAGTC,-0.101
2,CCATAATA,0.113
3,CCCTGAGG,-0.338
4,CAGTGATC,-0.00806
5,TCTAGAGA,-0.291
6,CGTATTAG,0.227
7,CGGAGGGA,0.0777
8,GAGAAACA,0.136
9,GAGTGTGA,-0.00585
10,ATCCCTAA,-0.202
11,CGGCCAAC,0.131
12,GCAGCGGC,-0.0532
13,AAAGCCGC,0.188
14,CACACGTA,-0.348
15,CCGTTGCG,0.148
16,ACGGTTAT,-0.0104
17,CAATGAGA,-0.105
18,ACCGTCCT,-0.186
19,AACGATTG,0.0036
20,AAATTGGA,0.0478
21,ACCAGGTA,-0.157
22,AGGTAGTG,-0.0589
23,CCTTGGAG,-0.114
24,GAATAAAA,0.178
25,AGTCACCC,-0.176

row,Sequence,PBM E-score
1,CGTCGGTA,0.022
2,ATATGATG,-0.00913
3,GTTGTAAA,0.00358
4,TCCTAAGA,-0.0114
5,AAACATGG,-0.032
6,ATGCACAA,-0.0784
7,AGGGCAGC,-0.143
8,ACCAGCGC,-0.161
9,GCTTGATA,0.0725
10,GCATACAA,0.0771
11,AACGGGAA,0.25
12,ACGTGTAG,-0.216
13,ACCACGTG,-0.117
14,GCATCCCC,-0.168
15,ACGGCGAG,-0.0486
16,GGACTCTA,-0.218
17,ATATCGGG,0.0298
18,AATGAAGT,-0.00892
19,TCAAATGA,0.00719
20,ACAATCGA,0.157
21,ACGCGCGG,-0.0239
22,CTCATAGA,-0.03
23,TATACTGA,0.234
24,ACAAAGTG,-0.0907
25,ATGAGGAC,-0.147

# Not a retest: an excerpt of the list.
row,Sequence,PBM E-score
2,ACGTCGGG,-0.113
3,GACTGTGA,-0.0703
4,AGCCCATA,-0.198
5,CTAGATGC,-0.0167
6,AGGATTCC,-0.169
7,AGCTCTTA,-0.037

# (continued)

row,Sequence,PBM E-score
1,GCCATCGC,-0.196
2,CGTTTGCC,0.0965
3,AGATAATG,0.154
4,ATTATTAA,0.203
5,CACGCCGG,0.267
6,TGAAAAAA,0.245
7,TGTGATAA,0.112
8,AAGTGCAA,-0.096
9,CACATGGA,-0.177
10,TGATTCAA,0.251
11,TCGCCCAA,-0.0759
12,ATGAATAC,0.0157
13,CAACCGGG,0.14
14,AGAAGTCC,0.00141
15,CTGAACGC,-0.056
16,CAATACGC,-0.0176
17,AGGTGAGG,-0.122
18,GCCCTGCC,-0.133
19,CCCGGCAA,0.335
20,GCATCACC,-0.26
21,TTCCTAAA,0.157
22,GGTGACAA,0.162
23,CATAATCG,0.0775
24,ATTAAGTC,0.123
25,CTACCGCA,-0.144

# Retrieved one by one from the entries so far:
row,Sequence,PBM E-score
10,GCATACAA,0.0771
10,TGATTCAA,0.251

# Additional entries follow.

row,Sequence,PBM E-score
1,AAGAGGTG,-0.0611
2,ACTCTAAA,0.0975
3,CTGAAGTC,-0.0867
4,GCTTGCCA,-0.00303
5,AGCGCGCT,-0.0737
6,TCGGCGAA,0.294
7,AGGTATTA,0.0804
8,ACTACTAG,0.0102
9,AGCCTAAT,-0.0799
10,AATATTAA,0.311
11,AACAACGC,0.0496
12,CGGTCCAG,-0.0513
13,ATATATGA,0.131
14,ACGCTAGG,-0.287
15,CTTTCGTA,0.0787
16,GACGTACC,-0.111
17,GCCAGGCA,0.0313
18,CACCCTTA,-0.147
19,ACGTCAAA,-0.07
20,GTATGATA,0.226
21,GAAACTTC,0.0503
22,CGGGTACC,-0.129
23,ATCCGTCC,-0.0635
24,ATTTCCAC,0.067
25,AGCTCTTG,-0.18

row,Sequence,PBM E-score
1,ATTAAAGG,0.176
2,AGTGCTGA,-0.285
3,ACGGCGGC,0.00561
4,CCCTTACC,-0.158
5,ACGAACCG,-0.0302
6,AGCGTGAC,-0.0445
7,CAGGAACC,-0.147
8,CTCTTCCC,-0.172
9,CACGTCAA,-0.162
10,ATATCCAT,0.0888
11,AATTGGTC,0.167
12,AGATCTAT,0.0428
13,ACGCCATG,-0.216
14,AAGCTTGG,-0.115
15,CGCTGGTA,-0.107
16,AACCACCT,0.0267
17,AGGAGGAA,0.00792
18,ACCCAAGT,-0.09
19,AACTAGTC,-0.137
20,ATACTGGG,-0.113
21,AACGATCG,0.139
22,AGGTCTTG,-0.00739
